Test results: patent publication US20110229560A1
No constants are given. Whether binding was seen depends on the method and setting. Some results given as binding are weak or reduced against the parent protein; the word gives no strength. One block for each substance: values may come before it.

By UniProt entry, the sequences of proteins in these tests, tags left out. Where a name states a change or a piece, a line headed by the entry shows the natural chain unless it says otherwise.
UniProt O14920: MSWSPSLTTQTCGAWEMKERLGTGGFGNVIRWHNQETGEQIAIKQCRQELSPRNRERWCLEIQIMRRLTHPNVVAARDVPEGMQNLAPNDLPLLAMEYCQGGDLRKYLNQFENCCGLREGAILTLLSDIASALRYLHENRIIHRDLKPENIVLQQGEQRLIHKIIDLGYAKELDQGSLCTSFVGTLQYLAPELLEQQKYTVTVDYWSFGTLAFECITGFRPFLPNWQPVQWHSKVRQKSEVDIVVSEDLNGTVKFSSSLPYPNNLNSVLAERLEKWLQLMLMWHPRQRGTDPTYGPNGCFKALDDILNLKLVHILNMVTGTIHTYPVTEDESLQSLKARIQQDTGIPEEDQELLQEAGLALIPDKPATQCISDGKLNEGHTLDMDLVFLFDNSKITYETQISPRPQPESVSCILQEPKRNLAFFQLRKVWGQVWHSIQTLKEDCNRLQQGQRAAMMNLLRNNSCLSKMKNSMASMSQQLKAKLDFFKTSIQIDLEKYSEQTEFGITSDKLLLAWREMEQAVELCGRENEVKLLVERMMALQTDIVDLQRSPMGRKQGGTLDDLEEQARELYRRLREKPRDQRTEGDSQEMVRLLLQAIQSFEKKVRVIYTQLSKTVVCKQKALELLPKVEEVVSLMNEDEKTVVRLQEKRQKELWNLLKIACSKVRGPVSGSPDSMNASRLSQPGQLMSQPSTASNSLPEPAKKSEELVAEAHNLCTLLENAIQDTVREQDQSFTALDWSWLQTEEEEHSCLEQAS
UniProt Q86WI3: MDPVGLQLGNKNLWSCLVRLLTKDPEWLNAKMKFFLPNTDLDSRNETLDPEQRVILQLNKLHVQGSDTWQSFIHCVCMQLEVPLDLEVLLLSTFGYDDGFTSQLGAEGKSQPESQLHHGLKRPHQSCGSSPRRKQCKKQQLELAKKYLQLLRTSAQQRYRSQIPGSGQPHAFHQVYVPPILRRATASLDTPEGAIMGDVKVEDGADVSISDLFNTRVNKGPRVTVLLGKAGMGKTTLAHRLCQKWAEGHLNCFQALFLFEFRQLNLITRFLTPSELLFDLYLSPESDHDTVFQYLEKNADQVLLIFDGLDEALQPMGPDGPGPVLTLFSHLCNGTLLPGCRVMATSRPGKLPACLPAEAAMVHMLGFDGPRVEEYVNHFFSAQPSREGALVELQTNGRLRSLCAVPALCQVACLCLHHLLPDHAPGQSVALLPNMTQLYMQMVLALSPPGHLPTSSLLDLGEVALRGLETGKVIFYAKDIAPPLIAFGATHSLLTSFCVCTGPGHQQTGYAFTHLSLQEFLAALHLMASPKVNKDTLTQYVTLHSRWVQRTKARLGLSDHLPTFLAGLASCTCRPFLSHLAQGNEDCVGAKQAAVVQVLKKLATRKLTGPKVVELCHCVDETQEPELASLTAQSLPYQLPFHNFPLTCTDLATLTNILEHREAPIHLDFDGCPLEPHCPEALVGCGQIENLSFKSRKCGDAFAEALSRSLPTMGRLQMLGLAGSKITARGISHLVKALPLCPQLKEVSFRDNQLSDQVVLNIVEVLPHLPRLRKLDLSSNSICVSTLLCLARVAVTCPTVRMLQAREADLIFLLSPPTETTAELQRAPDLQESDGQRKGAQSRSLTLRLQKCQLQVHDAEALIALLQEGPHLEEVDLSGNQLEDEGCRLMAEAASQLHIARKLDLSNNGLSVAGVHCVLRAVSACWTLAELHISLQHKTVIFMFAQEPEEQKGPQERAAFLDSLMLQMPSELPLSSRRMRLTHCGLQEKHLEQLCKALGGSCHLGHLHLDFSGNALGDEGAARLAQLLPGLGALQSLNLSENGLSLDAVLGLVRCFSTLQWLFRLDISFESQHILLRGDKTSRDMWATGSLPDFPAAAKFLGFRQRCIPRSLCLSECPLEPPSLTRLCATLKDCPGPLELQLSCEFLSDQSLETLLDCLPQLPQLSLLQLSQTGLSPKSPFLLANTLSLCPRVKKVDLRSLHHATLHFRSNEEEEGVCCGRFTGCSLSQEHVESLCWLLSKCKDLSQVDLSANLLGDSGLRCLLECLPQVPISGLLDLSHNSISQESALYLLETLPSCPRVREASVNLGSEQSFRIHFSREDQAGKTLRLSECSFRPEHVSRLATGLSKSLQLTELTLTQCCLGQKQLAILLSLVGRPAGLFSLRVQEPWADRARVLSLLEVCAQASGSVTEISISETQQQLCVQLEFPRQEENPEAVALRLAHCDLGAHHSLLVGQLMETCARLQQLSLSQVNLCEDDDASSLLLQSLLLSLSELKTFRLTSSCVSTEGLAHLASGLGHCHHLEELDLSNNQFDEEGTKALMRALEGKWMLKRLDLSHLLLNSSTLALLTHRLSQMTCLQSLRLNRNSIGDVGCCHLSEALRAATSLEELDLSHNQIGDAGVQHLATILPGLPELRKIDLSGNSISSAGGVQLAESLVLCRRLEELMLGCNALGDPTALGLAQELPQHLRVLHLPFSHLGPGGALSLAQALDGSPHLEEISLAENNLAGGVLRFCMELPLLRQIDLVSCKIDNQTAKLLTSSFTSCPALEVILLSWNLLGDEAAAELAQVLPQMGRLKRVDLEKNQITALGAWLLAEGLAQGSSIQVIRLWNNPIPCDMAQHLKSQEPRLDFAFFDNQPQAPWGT
UniProt C3VPR6: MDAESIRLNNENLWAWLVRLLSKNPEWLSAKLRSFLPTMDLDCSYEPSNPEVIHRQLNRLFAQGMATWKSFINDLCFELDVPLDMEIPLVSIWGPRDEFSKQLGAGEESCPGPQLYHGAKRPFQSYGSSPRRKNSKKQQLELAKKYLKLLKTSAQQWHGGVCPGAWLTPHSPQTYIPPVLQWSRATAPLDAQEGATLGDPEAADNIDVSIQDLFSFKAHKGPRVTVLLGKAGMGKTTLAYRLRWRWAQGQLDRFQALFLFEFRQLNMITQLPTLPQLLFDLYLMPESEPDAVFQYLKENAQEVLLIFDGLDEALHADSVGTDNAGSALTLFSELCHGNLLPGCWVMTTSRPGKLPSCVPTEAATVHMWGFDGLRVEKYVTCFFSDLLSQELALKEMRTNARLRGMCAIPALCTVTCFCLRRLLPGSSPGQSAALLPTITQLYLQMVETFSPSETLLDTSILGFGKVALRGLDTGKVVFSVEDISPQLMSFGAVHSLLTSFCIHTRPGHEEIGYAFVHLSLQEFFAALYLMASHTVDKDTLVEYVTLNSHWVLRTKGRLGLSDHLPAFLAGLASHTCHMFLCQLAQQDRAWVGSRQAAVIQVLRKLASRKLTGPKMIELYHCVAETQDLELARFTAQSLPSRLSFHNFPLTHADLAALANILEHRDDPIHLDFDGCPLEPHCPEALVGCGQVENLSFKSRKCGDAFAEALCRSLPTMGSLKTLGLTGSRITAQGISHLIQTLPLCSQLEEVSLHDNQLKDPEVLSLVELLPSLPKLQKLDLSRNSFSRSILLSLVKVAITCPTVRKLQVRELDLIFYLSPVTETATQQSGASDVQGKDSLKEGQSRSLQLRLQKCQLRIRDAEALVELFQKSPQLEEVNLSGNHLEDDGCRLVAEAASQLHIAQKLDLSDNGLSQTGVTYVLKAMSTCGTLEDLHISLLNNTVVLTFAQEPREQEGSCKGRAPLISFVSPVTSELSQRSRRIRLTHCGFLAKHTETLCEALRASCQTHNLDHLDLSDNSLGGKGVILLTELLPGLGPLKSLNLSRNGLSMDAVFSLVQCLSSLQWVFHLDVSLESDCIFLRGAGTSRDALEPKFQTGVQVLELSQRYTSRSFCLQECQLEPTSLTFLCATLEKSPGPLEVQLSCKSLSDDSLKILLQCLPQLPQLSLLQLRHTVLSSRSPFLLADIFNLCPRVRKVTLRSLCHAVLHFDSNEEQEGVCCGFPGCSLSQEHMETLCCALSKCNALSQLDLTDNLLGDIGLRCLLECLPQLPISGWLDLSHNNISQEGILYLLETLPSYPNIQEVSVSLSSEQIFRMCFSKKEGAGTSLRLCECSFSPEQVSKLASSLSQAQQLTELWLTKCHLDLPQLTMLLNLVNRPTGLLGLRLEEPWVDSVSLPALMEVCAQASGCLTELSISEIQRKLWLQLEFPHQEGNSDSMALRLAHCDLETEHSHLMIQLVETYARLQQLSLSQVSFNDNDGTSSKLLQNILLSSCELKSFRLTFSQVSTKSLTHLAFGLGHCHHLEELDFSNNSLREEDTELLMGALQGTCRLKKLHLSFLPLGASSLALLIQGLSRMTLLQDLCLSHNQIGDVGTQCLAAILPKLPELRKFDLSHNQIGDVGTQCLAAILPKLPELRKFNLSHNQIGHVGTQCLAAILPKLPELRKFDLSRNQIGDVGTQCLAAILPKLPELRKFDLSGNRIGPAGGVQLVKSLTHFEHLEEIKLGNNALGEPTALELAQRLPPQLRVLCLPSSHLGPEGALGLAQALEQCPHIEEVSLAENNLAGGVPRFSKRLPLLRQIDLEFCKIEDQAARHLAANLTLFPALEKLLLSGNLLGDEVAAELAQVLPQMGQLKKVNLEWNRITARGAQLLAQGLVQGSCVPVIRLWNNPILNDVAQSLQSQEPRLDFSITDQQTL

How the values were obtained:
[1] = biological target: T1, endogenous IKKα/β (293T cells) (human) (UniProt O15111+O14920); assay: IP of HEK293T cells expressing Flag-NLRC5 with anti-IKKα, anti-Flag, anti-NEMO or control IgG, immunoblot, FIG. 21A
[2] = biological target: T1, endogenous IKKα/β (293T cells) (human); assay: IP of 293T lysate with anti-NLRC5, Western blot with anti-IKKα/β
[3] = biological target: T1, endogenous IKKα/β (293T cells) (human); assay: IP of HEK293T lysate with anti-IKKα/β, Western blot with anti-NLRC5, FIG. 8
[4] = biological target: T2, endogenous RIG-I (RAW264.7 cells) (mouse) (UniProt Q6Q899); assay: IP of RAW264.7 lysate with anti-mNLRC5 after VSV-eGFP infection, blot with anti-RIG-I
T2 sequence (looked up): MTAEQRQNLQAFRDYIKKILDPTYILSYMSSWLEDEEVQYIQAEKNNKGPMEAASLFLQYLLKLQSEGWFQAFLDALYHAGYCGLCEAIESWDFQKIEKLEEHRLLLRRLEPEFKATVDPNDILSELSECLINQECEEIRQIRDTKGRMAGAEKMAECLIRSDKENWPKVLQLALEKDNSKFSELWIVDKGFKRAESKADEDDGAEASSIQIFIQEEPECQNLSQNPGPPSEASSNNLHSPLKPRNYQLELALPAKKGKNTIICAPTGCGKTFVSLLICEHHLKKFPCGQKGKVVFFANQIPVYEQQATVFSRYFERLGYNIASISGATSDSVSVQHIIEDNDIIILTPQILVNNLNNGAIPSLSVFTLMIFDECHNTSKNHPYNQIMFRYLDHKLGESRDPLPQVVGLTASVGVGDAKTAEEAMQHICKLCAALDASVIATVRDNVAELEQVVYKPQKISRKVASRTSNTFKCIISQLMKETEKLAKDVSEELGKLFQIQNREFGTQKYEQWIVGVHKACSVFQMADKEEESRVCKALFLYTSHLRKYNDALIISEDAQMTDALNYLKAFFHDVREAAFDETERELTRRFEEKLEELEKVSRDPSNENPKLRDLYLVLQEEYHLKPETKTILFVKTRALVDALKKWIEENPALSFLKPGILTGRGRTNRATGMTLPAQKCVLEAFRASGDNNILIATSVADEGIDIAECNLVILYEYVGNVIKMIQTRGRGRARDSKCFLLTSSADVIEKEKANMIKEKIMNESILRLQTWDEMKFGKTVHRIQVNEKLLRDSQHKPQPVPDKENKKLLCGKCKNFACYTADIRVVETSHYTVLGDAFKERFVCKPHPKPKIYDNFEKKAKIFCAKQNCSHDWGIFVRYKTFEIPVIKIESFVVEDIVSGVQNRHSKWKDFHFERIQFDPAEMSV

[5] = biological target: T3, endogenous IKKα/β (RAW264.7 cells) (mouse) (UniProt Q60680+O88351); assay: IP of RAW264.7 lysate with anti-IKKα/β, Western blot with mNLRC5 antibody, FIG. 8
[6] = biological target: T3, endogenous IKKα/β (RAW264.7 cells) (mouse); assay: IP of RAW264.7 lysate with anti-IKKα/β, anti-NEMO or control IgG, Western blot with mNLRC5 antibody, FIG. 25
[7] = biological target: T2, endogenous RIG-I (RAW264.7 cells) (mouse); assay: IP of RAW264.7 lysate with anti-mNLRC5 at time points after VSV-eGFP infection, Western blot with anti-RIG-I; no or only a faint band at 0, 2 and 4 h
[8] = biological target: T2, endogenous RIG-I (RAW264.7 cells) (mouse); assay: IP of RAW264.7 lysate with anti-mNLRC5 after VSV-eGFP infection, Western blot with anti-RIG-I, FIG. 13D
[9] = biological target: T4, endogenous IKKβ (RAW264.7 cells) (mouse) (UniProt O88351); assay: IP of RAW264.7 lysate with anti-mNLRC5 at time points after LPS, blot with anti-IKKβ, FIG. 20
T4 sequence (looked up): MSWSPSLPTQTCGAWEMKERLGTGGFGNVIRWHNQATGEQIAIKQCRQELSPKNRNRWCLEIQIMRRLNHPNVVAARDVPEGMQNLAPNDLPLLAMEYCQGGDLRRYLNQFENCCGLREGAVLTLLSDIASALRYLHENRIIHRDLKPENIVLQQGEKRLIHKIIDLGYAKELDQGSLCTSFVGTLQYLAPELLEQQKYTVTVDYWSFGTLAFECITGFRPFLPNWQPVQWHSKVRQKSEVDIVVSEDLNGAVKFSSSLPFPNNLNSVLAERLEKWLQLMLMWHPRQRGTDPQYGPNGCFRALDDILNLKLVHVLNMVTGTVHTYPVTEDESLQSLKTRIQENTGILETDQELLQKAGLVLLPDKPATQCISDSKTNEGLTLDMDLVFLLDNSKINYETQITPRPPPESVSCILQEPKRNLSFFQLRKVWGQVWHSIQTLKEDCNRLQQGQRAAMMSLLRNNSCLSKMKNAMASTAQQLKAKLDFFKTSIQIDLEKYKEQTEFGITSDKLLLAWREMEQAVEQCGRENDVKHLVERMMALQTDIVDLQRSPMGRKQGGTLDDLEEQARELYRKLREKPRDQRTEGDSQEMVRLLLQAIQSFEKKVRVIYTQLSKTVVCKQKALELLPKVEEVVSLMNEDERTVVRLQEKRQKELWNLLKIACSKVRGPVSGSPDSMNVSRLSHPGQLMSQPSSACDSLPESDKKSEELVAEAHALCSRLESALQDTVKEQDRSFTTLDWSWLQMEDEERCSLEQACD

[10] = biological target: T5, endogenous IKKα (RAW264.7 cells) (mouse) (UniProt Q60680); assay: IP of RAW264.7 lysate with anti-mNLRC5 after LPS, immunoblot with anti-IKKα, FIG. 23
T5 sequence (looked up): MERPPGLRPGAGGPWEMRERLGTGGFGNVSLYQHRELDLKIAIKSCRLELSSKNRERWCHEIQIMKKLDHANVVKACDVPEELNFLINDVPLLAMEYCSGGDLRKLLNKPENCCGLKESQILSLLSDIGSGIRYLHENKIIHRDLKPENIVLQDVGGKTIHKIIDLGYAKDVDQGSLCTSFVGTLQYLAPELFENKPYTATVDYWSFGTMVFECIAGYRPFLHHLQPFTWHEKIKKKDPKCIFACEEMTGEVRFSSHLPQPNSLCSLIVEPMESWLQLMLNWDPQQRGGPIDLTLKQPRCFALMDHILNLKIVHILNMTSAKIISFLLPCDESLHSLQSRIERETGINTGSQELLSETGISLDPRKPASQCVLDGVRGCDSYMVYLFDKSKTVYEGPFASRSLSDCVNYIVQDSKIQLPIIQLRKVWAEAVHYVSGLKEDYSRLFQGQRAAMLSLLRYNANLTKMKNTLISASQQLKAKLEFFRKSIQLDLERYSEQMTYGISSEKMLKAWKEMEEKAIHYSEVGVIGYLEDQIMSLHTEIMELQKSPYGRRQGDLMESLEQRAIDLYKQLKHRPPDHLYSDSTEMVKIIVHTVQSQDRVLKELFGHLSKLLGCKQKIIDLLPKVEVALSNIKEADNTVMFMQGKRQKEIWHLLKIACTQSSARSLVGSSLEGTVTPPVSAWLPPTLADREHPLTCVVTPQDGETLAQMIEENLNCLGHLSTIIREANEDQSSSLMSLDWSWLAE

[11] = biological target: T3, endogenous IKKα/β (RAW264.7 cells) (mouse); assay: IP of RAW264.7 lysate with anti-mNLRC5, Western blot with anti-IKKα/β
[12] = biological target: T4, endogenous IKKβ (RAW264.7 cells) (mouse); assay: IP of RAW264.7 lysate with anti-mNLRC5 after LPS, immunoblot with anti-IKKβ, FIG. 23
[13] = biological target: T5, endogenous IKKα (RAW264.7 cells) (mouse); assay: IP of RAW264.7 lysate with anti-mNLRC5 at time points after LPS, blot with anti-IKKα, FIG. 20

- binding [1]: binds
Substance: Flag-NLRC5 (human NLRC5, full length) (from UniProt Q86WI3 1-1866)

- binding [2]: binds
- binding [3]: binds
Substance: endogenous human NLRC5 (293T cells) (from UniProt Q86WI3 1-1866)

Substance: endogenous mouse NLRC5 (RAW264.7 cells) (from UniProt C3VPR6 1-1915)
- binding [4]: binds
- binding [5]: binds
- binding [6]: binds
- binding [7]: binds
- binding [8]: binds
- binding [9]: binds
- binding [10]: binds
- binding [11]: binds
- binding [12]: binds
- binding [13]: binds
